Measured values reported in patent publication US20130137748A1.
Results are given in words; binding and its absence hold for the method and conditions named. Binding seen in cells or lysates may run through a third protein. Some binding calls cover weakened binding; strength is not graded here.

The chains behind the UniProt entries cited, without tags or fusion partners. Where a name states a change or a piece, a line headed by the entry shows the natural chain unless it says otherwise.
UniProt P31751: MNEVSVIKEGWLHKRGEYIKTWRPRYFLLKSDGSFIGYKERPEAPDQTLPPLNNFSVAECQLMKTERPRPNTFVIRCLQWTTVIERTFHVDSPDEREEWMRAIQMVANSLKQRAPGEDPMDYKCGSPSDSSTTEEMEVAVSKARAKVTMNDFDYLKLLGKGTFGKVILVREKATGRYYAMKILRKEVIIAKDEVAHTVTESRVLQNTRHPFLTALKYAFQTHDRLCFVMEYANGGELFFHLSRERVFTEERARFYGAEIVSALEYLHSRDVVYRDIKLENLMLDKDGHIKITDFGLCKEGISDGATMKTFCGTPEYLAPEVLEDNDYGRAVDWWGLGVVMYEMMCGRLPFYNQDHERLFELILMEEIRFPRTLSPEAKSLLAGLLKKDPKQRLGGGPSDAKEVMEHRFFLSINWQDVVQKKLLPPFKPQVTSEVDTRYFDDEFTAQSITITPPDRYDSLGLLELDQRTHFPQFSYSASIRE
UniProt Q13009: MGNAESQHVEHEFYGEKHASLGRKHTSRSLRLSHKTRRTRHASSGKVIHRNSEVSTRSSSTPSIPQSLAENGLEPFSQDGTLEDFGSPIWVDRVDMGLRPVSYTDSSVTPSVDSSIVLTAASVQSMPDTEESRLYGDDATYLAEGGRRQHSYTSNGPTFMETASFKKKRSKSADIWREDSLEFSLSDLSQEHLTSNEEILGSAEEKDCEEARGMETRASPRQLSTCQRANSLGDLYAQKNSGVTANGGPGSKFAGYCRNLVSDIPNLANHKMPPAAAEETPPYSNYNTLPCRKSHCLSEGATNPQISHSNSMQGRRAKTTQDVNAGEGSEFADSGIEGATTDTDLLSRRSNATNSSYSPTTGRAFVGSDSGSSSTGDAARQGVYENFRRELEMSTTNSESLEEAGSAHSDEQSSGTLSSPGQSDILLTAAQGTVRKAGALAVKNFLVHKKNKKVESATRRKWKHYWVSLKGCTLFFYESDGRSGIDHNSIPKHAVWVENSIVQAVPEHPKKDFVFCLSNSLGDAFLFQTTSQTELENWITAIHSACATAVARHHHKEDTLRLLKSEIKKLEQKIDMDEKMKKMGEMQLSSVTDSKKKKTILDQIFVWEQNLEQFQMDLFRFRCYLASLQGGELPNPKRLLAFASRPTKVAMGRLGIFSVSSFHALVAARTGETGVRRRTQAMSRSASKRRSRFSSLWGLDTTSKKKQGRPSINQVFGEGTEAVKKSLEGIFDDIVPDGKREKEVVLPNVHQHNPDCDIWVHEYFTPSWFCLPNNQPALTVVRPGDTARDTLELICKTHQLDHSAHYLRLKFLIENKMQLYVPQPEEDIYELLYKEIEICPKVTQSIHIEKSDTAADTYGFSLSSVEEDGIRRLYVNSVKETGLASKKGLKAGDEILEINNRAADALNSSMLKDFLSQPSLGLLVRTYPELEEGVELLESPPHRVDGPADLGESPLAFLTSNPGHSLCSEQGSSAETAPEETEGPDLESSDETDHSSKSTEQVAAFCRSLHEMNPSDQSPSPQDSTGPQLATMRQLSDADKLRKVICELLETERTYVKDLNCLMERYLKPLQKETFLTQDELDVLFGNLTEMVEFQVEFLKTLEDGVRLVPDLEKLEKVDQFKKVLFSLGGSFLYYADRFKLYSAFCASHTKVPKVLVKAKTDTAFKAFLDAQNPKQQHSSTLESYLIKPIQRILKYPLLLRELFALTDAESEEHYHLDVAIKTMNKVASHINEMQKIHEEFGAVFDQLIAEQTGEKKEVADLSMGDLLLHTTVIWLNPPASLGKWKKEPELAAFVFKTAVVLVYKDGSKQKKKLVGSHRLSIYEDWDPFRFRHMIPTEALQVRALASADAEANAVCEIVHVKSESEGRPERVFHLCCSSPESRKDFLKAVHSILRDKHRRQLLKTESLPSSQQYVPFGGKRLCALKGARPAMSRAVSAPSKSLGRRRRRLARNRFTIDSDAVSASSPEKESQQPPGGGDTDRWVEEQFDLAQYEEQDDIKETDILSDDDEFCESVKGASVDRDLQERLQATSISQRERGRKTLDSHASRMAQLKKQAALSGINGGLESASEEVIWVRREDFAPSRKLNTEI
UniProt P35222: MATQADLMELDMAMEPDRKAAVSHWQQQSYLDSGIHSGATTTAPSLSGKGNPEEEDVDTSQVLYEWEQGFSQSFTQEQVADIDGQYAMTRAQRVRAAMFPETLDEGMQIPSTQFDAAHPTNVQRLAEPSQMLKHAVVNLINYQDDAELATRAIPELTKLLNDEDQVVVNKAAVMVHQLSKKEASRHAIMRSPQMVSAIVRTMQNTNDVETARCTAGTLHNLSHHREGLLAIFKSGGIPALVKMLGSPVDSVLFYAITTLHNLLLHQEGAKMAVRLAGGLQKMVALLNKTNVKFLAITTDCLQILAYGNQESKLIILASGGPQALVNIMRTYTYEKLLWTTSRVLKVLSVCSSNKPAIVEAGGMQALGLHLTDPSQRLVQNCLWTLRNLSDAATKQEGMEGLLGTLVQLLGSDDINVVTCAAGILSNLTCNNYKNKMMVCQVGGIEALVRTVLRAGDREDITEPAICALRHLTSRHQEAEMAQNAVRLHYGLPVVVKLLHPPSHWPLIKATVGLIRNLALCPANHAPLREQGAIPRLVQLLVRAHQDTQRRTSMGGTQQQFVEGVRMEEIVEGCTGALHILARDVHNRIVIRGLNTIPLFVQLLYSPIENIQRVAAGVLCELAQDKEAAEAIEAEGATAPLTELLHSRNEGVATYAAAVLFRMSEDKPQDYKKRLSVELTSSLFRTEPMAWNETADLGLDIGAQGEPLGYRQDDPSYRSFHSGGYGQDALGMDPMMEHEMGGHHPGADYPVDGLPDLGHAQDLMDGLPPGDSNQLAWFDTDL
UniProt P46940: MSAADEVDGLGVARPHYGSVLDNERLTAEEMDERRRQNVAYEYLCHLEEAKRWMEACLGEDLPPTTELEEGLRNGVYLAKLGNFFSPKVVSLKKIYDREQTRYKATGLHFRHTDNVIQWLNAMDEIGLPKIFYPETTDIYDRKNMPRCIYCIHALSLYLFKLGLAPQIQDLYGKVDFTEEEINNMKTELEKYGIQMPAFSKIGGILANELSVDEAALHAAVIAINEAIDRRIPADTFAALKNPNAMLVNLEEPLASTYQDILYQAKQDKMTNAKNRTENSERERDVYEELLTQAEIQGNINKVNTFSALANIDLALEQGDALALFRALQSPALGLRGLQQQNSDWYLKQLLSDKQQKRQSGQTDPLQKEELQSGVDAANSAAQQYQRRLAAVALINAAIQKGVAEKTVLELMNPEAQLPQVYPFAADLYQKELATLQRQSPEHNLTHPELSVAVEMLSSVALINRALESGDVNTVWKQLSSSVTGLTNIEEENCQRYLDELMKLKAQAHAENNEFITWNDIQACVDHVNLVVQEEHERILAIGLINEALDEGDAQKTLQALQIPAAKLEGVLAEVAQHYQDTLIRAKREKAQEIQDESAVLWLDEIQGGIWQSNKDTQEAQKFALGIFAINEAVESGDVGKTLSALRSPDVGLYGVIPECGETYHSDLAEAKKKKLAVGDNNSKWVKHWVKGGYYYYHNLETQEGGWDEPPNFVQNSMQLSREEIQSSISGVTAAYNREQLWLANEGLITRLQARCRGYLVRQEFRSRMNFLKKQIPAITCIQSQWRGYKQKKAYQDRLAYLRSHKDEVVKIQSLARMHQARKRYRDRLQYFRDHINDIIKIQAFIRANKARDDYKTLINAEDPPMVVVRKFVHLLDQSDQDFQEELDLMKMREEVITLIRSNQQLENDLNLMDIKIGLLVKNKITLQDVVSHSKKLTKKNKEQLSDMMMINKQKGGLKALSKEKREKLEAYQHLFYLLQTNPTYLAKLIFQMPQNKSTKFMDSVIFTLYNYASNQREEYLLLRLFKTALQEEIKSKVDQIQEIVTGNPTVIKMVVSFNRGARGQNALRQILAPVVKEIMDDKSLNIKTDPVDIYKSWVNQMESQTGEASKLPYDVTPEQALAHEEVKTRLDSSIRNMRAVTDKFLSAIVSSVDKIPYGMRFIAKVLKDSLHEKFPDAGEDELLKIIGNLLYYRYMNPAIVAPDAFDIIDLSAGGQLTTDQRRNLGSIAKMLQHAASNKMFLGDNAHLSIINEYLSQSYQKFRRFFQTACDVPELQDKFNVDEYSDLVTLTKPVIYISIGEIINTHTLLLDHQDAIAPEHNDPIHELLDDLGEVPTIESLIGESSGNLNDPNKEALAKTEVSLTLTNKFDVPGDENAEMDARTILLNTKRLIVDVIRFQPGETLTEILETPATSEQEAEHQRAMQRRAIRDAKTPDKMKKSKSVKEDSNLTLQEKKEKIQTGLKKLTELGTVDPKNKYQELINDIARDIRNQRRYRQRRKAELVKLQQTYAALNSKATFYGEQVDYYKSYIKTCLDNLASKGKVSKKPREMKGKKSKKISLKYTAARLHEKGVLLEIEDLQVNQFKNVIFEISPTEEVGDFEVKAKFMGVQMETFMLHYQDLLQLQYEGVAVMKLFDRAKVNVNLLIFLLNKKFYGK
UniProt O96028: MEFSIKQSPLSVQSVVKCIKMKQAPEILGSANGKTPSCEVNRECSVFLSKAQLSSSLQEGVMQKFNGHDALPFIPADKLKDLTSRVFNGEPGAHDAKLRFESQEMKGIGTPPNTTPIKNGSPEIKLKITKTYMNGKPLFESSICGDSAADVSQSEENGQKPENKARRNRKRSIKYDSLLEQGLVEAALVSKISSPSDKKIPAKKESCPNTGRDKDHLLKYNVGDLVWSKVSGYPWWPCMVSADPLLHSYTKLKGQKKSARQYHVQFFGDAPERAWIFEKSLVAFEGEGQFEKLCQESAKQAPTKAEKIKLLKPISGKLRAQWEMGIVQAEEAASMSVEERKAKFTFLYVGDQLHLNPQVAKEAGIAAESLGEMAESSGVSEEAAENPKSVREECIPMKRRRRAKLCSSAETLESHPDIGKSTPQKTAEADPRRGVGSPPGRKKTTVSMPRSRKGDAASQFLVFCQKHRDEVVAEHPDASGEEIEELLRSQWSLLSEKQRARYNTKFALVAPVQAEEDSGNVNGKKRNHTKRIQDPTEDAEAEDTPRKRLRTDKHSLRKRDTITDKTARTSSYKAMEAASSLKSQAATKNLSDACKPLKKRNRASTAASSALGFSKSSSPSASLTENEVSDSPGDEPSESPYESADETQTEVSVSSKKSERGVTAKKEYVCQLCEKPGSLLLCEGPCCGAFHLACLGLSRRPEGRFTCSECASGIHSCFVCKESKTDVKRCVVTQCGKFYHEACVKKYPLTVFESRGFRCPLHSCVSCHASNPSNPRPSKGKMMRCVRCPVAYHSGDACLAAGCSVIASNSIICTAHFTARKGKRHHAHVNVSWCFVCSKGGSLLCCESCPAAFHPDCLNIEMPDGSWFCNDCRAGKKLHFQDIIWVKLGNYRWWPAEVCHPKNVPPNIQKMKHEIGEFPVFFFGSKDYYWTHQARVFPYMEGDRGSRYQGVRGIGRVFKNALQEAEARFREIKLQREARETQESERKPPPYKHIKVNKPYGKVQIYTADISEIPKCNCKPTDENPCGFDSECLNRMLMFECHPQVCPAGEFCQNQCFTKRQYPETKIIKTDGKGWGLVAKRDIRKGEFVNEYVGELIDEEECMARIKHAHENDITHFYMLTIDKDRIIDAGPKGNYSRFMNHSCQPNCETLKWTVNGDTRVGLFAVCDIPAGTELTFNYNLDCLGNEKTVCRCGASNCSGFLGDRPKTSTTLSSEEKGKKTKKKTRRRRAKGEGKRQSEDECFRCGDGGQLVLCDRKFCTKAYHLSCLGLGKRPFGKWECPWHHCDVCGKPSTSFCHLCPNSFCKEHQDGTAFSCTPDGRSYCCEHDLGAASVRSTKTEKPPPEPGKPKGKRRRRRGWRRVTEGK

How the values were obtained:
[1] = target: AKT2 (v-akt murine thymoma viral oncogene homolog 2) (Homo sapiens (Human)) (UniProt P31751); test: co-immunoprecipitation (anti-FLAG M2 agarose, 293T lysate) and immunoblot
[2] = target: TIAM1 (T-cell lymphoma invasion and metastasis 1) (Homo sapiens (Human)) (UniProt Q13009); test: as above
[3] = target: beta-catenin (Homo sapiens (Human)) (UniProt P35222); test: as above
[4] = target: IQGAP1 (IQ motif containing GTPase activating protein 1) (Homo sapiens (Human)) (UniProt P46940); test: as above
[5] = target: TIAM1 (T-cell lymphoma invasion and metastasis 1) (Homo sapiens (Human)) (UniProt Q13009); test: discussion of the co-immunoprecipitation results
[6] = target: beta-catenin (Homo sapiens (Human)) (UniProt P35222); test: discussion of the co-immunoprecipitation results
[7] = target: IQGAP1 (IQ motif containing GTPase activating protein 1) (Homo sapiens (Human)) (UniProt P46940); test: discussion of the co-immunoprecipitation results
[8] = target: AKT2 (v-akt murine thymoma viral oncogene homolog 2) (Homo sapiens (Human)) (UniProt P31751); test: figure legend (IP-MS and co-immunoprecipitation)
[9] = target: TIAM1 (T-cell lymphoma invasion and metastasis 1) (Homo sapiens (Human)) (UniProt Q13009); test: figure legend (IP-MS and co-immunoprecipitation)
[10] = target: IQGAP1 (IQ motif containing GTPase activating protein 1) (Homo sapiens (Human)) (UniProt P46940); test: figure legend (IP-MS and co-immunoprecipitation)
[11] = target: beta-catenin (Homo sapiens (Human)) (UniProt P35222); test: figure legend (co-immunoprecipitation)

Measured: binding

3×FLAG-WHSC1 (Wolf-Hirschhorn syndrome candidate-1, FLAG-tagged) (from UniProt O96028 1-1365) (enzyme)
binds: all assays above
